For one compound, IC50 results are on record in patent US11065257B2, “Substituted pyrazoloazepin-4-ones and their use as phosphodiesterase inhibitors” (LEO Pharma A/S, priority 2016, dated 2021).

Chains of the proteins cited; added tags and fusions are not shown. Residues count along the entry.
UniProt Q08499, 380-740 limits assumed: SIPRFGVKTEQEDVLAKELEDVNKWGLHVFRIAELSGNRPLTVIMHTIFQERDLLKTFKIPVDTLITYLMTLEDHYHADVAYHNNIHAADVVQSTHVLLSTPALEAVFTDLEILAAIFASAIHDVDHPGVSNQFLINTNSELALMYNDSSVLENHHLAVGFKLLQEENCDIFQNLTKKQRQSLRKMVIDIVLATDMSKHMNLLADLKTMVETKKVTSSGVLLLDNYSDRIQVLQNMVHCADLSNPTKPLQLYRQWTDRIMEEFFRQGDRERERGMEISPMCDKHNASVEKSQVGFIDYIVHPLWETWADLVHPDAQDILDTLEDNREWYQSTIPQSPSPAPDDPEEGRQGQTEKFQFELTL

SMILES strings stand for the structures. Structures were worked out from names or drawings and are uncertain.

This assay addresses human PDE4D catalytic domain (Homo sapiens, UniProt Q08499). Description: PDE4 Assay. The note with it: read-out: PDE4 Potency Range; human PDE4D catalytic domain (S380-L740), TR-FRET with FAM-cAMP; expressed as a range of IC50. As for the experimental part: The human PDE4D catalytic domain (UniProt no. Q08499 [S380-L740]) was incubated with a mixture of non-labelled cAMP (cyclic adenosine monophosphate) and fluorescein amidite (FAM) conjugated cAMP and titrated test or reference compound. Following brief incubation the enzymatic reaction was stopped by addition of binding buffer containing nanoparticles with immobilized trivalent metal ions capable of binding 1) AMP phospho groups and 2) terbium (Tb) donor fluorophores. Subsequent excitation of the Tb donor triggers time-resolved FRET to adjacent FAM acceptor molecules resulting in light emission. In the presence of a PDE4 inhibitor, AMP generation was reduced resulting in a lower fluorescence signal. The cAMP phosphodiester is not bound by the detection system.
The results were calculated as the molar concentrations resulting in 50% inhibition of the substrate cleavage compared to controls samples, and are expressed as a range of IC50 (nM).

With `CCc1nn(CCCOC(=O)C2CCN(C(=O)N(C)C)CC2)c2c1C(=O)NCC1(CCOCC1)C2`, the IC50 was in the range of 100 to 500 nM.
